# Values of other authors as cited in US20040106588A1 (priority 2002, published 2004).
# At least one structure is not confirmed: it was looked up by name or label, or the drawing left a doubt.
# Tested on: colon adenocarcinomas
# Settings: studies referred to by Reddy et al; cited from earlier work
structure (smiles),measurement,value
COc1ccc(-c2cc(=S)ss2)cc1 [anethole trithione],effect on colon adenocarcinomas,inhibited colon adenocarcinomas
